Values from PubChem BioAssay AID1224830 (NIAID, 2016).
Purpose: 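Genes whose knock-down alters the TNF-alpha reporter response to LPS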 (primary screen). System: human THP-1 monocytic leukaemia cells, TNF dual-luciferase reporter clone, PMA-differentiated to macrophage-like cells. Reagents: siRNA pool against human genes, 50 nM. Time to read-out: LPS for 4 h, given about 3 days after siRNA transfection. Challenge: bacterial LPS (TLR4 ligand), 10 ng/ml. Measured: 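TNF firefly reporter luminescence divided by renilla, normalised to the plate median, then turned into a robust z-score for each replicate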. Scale: TNF reporter robust z-score: higher = stronger TNF reporter response to LPS. Rule for the call: 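a well is active when its z-score exceeds 2.8 or falls below -1.5; control wells carry no call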.
The deposit covers about 18,000 reagents; shown is a part drawn at random. In the full data, about 2,900 (16%) are marked active. 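Calls are made per well; low scores hint the gene aids the LPS response, high scores that it dampens it.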 Unmarked entries are inactive. Repeated entries: four replicate wells of each siRNA pool.

no.	gene knocked down	PubChem SID	TNF reporter robust z-score
1	BRCA2 (BRCA2 DNA repair associated)	SID315447584	-0.86
2	BRCA2 (BRCA2 DNA repair associated)	SID315447584	-1.03
3	BRCA2 (BRCA2 DNA repair associated)	SID315447584	-1.22
4	BRCA2 (BRCA2 DNA repair associated)	SID315447584	-1.02
5	FOXF1 (forkhead box F1)	SID315448707	-1.25
6	FOXF1 (forkhead box F1)	SID315448707	-0.75
7	FOXF1 (forkhead box F1)	SID315448707	-1.52 (active)
8	FOXF1 (forkhead box F1)	SID315448707	-1.15
9	TFG (trafficking from ER to golgi regulator)	SID315454018	-0.35
10	TFG (trafficking from ER to golgi regulator)	SID315454018	-0.31
11	TFG (trafficking from ER to golgi regulator)	SID315454018	-0.53
12	TFG (trafficking from ER to golgi regulator)	SID315454018	0.67
13	CARD17P (caspase recruitment domain family member 17, pseudogene)	SID315464885	0.65
14	CARD17P (caspase recruitment domain family member 17, pseudogene)	SID315464885	-0.15
15	CARD17P (caspase recruitment domain family member 17, pseudogene)	SID315464885	0.35
16	CARD17P (caspase recruitment domain family member 17, pseudogene)	SID315464885	0.22
17	LCN12 (lipocalin 12)	SID315463908	-0.06
18	LCN12 (lipocalin 12)	SID315463908	-0.29
19	LCN12 (lipocalin 12)	SID315463908	-0.27
20	LCN12 (lipocalin 12)	SID315463908	0.57
21	FGF1 (fibroblast growth factor 1)	SID315448672	-0.11
22	FGF1 (fibroblast growth factor 1)	SID315448672	0.87
23	FGF1 (fibroblast growth factor 1)	SID315448672	1.91
24	SAMD11 (sterile alpha motif domain containing 11)	SID315462380	1.71
25	SAMD11 (sterile alpha motif domain containing 11)	SID315462380	3.78 (active)
26	SAMD11 (sterile alpha motif domain containing 11)	SID315462380	1.09
27	SAMD11 (sterile alpha motif domain containing 11)	SID315462380	0.84
28	GABRA1 (gamma-aminobutyric acid type A receptor subunit alpha1)	SID315448796	-0.74
29	GABRA1 (gamma-aminobutyric acid type A receptor subunit alpha1)	SID315448796	0.39
30	GABRA1 (gamma-aminobutyric acid type A receptor subunit alpha1)	SID315448796	-1.05
31	GABRA1 (gamma-aminobutyric acid type A receptor subunit alpha1)	SID315448796	-0.45
32	WNT7B (Wnt family member 7B)	SID315452147	-0.64
33	WNT7B (Wnt family member 7B)	SID315452147	0.47
34	WNT7B (Wnt family member 7B)	SID315452147	0
35	WNT7B (Wnt family member 7B)	SID315452147	0.07
36	MCTS1 (MCTS1 re-initiation and release factor)	SID315456098	-0.06
37	MCTS1 (MCTS1 re-initiation and release factor)	SID315456098	0
38	MCTS1 (MCTS1 re-initiation and release factor)	SID315456098	0.13
39	MCTS1 (MCTS1 re-initiation and release factor)	SID315456098	0.81
40	SNAI2 (snail family transcriptional repressor 2)	SID315451522	1.28
41	SNAI2 (snail family transcriptional repressor 2)	SID315451522	2.26
42	SNAI2 (snail family transcriptional repressor 2)	SID315451522	1.39
43	SNAI2 (snail family transcriptional repressor 2)	SID315451522	0.96
44	MRPS16 (mitochondrial ribosomal protein S16)	SID315456409	-0.1
45	MRPS16 (mitochondrial ribosomal protein S16)	SID315456409	0.52
46	MRPS16 (mitochondrial ribosomal protein S16)	SID315456409	0.92
47	MRPS16 (mitochondrial ribosomal protein S16)	SID315456409	0.13
48	OTOP2 (otopetrin 2)	SID315461029	-0.41
49	OTOP2 (otopetrin 2)	SID315461029	-0.81
50	OTOP2 (otopetrin 2)	SID315461029	-0.88
51	OTOP2 (otopetrin 2)	SID315461029	-0.33
52	ELF2 (E74 like ETS transcription factor 2)	SID315448490	1.13
53	ELF2 (E74 like ETS transcription factor 2)	SID315448490	1.72
54	ELF2 (E74 like ETS transcription factor 2)	SID315448490	1.57
55	ELF2 (E74 like ETS transcription factor 2)	SID315448490	0.47
56	COPS7B (COP9 signalosome subunit 7B)	SID315458957	0
57	COPS7B (COP9 signalosome subunit 7B)	SID315458957	0.38
58	COPS7B (COP9 signalosome subunit 7B)	SID315458957	1.64
59	COPS7B (COP9 signalosome subunit 7B)	SID315458957	1.68

Entries listed above marked active:
gene knocked down	PubChem SID	TNF reporter robust z-score
FOXF1 (forkhead box F1)	SID315448707	-1.52 (active)
SAMD11 (sterile alpha motif domain containing 11)	SID315462380	3.78 (active)

Continued.
no.	gene knocked down	PubChem SID	TNF reporter robust z-score
60	IDH3G	SID315449395	-0.99
61	IDH3G	SID315449395	-0.83
62	IDH3G	SID315449395	0.22
63	DGCR2 (DiGeorge syndrome critical region gene 2)	SID315453736	0.19
64	DGCR2 (DiGeorge syndrome critical region gene 2)	SID315453736	-0.68
65	DGCR2 (DiGeorge syndrome critical region gene 2)	SID315453736	-0.64
66	DGCR2 (DiGeorge syndrome critical region gene 2)	SID315453736	1.05
67	NPHP1 (nephrocystin 1)	SID315450291	0.98
68	NPHP1 (nephrocystin 1)	SID315450291	0.77
69	NPHP1 (nephrocystin 1)	SID315450291	1.26
70	NPHP1 (nephrocystin 1)	SID315450291	0.71
71	AARD (alanine and arginine rich domain containing protein)	SID315464938	0.01
72	AARD (alanine and arginine rich domain containing protein)	SID315464938	-0.66
73	AARD (alanine and arginine rich domain containing protein)	SID315464938	0.04
74	AARD (alanine and arginine rich domain containing protein)	SID315464938	-0.3
75	OMG (oligodendrocyte myelin glycoprotein)	SID315450355	0.3
76	OMG (oligodendrocyte myelin glycoprotein)	SID315450355	0.45
77	OMG (oligodendrocyte myelin glycoprotein)	SID315450355	-0.18
78	OMG (oligodendrocyte myelin glycoprotein)	SID315450355	0.56
79	ACOT8 (acyl-CoA thioesterase 8)	SID315453744	0.06
80	ACOT8 (acyl-CoA thioesterase 8)	SID315453744	0.45
81	ACOT8 (acyl-CoA thioesterase 8)	SID315453744	-0.55
82	ACOT8 (acyl-CoA thioesterase 8)	SID315453744	-0.25
83	BLVRB (biliverdin reductase B)	SID315447556	2.09
84	BLVRB (biliverdin reductase B)	SID315447556	2.21
85	BLVRB (biliverdin reductase B)	SID315447556	2.18
86	BLVRB (biliverdin reductase B)	SID315447556	1.7
87	TAB2 (TGF-beta activated kinase 1 (MAP3K7) binding protein 2)	SID315455003	-1.01
88	TAB2 (TGF-beta activated kinase 1 (MAP3K7) binding protein 2)	SID315455003	-1.03
89	TAB2 (TGF-beta activated kinase 1 (MAP3K7) binding protein 2)	SID315455003	-1.17
90	TAB2 (TGF-beta activated kinase 1 (MAP3K7) binding protein 2)	SID315455003	-0.41
91	CCT6B (chaperonin containing TCP1 subunit 6B)	SID315454301	-0.09
92	CCT6B (chaperonin containing TCP1 subunit 6B)	SID315454301	-0.76
93	CCT6B (chaperonin containing TCP1 subunit 6B)	SID315454301	-0.71
94	CCT6B (chaperonin containing TCP1 subunit 6B)	SID315454301	1.58
95	SDF2 (stromal cell derived factor 2)	SID315451357	0.57
96	SDF2 (stromal cell derived factor 2)	SID315451357	1.41
97	SDF2 (stromal cell derived factor 2)	SID315451357	0.85
98	SDF2 (stromal cell derived factor 2)	SID315451357	1.05
99	UFC1 (ubiquitin-fold modifier conjugating enzyme 1)	SID315456747	-0.17
100	UFC1 (ubiquitin-fold modifier conjugating enzyme 1)	SID315456747	1.29
101	UFC1 (ubiquitin-fold modifier conjugating enzyme 1)	SID315456747	-0.16
102	UFC1 (ubiquitin-fold modifier conjugating enzyme 1)	SID315456747	-0.44
103	EMC7 (ER membrane protein complex subunit 7)	SID315458126	-1.36
104	EMC7 (ER membrane protein complex subunit 7)	SID315458126	-0.86
105	EMC7 (ER membrane protein complex subunit 7)	SID315458126	-1.28
106	EMC7 (ER membrane protein complex subunit 7)	SID315458126	-0.62
107	ADAMTS5 (ADAM metallopeptidase with thrombospondin type 1 motif 5)	SID315454596	1
108	ADAMTS5 (ADAM metallopeptidase with thrombospondin type 1 motif 5)	SID315454596	-0.5
109	ADAMTS5 (ADAM metallopeptidase with thrombospondin type 1 motif 5)	SID315454596	-1.05
110	ADAMTS5 (ADAM metallopeptidase with thrombospondin type 1 motif 5)	SID315454596	0.35
111	CHMP2B (charged multivesicular body protein 2B)	SID315455592	0.14
112	CHMP2B (charged multivesicular body protein 2B)	SID315455592	0.44
113	CHMP2B (charged multivesicular body protein 2B)	SID315455592	-0.69
114	CHMP2B (charged multivesicular body protein 2B)	SID315455592	-1.44
115	TIAM2 (TIAM Rac1 associated GEF 2)	SID315455723	-1.07
116	TIAM2 (TIAM Rac1 associated GEF 2)	SID315455723	-0.1
117	TIAM2 (TIAM Rac1 associated GEF 2)	SID315455723	-0.32
118	TIAM2 (TIAM Rac1 associated GEF 2)	SID315455723	0.35
119	CTSG (cathepsin G)	SID315448178	-0.6
120	CTSG (cathepsin G)	SID315448178	0.27
121	CTSG (cathepsin G)	SID315448178	-0.41
122	CTSG (cathepsin G)	SID315448178	1.05
123	PMF1 (polyamine modulated factor 1)	SID315454711	0.43
124	PMF1 (polyamine modulated factor 1)	SID315454711	-0.2
125	PMF1 (polyamine modulated factor 1)	SID315454711	0.9
126	PMF1 (polyamine modulated factor 1)	SID315454711	-0.12
127	VIT (vitrin)	SID315450535	1.91
128	VIT (vitrin)	SID315450535	1.8
129	VIT (vitrin)	SID315450535	2.07
130	VIT (vitrin)	SID315450535	2.28
131	TUBB8 (tubulin beta 8 class VIII)	SID315464224	-0.42
132	TUBB8 (tubulin beta 8 class VIII)	SID315464224	0.69
133	TUBB8 (tubulin beta 8 class VIII)	SID315464224	-0.13
134	TUBB8 (tubulin beta 8 class VIII)	SID315464224	-0.22
135	NDUFB10 (NADH:ubiquinone oxidoreductase subunit B10)	SID315450185	0.31
136	NDUFB10 (NADH:ubiquinone oxidoreductase subunit B10)	SID315450185	0.22
137	NDUFB10 (NADH:ubiquinone oxidoreductase subunit B10)	SID315450185	-0.02
138	NDUFB10 (NADH:ubiquinone oxidoreductase subunit B10)	SID315450185	-0.82
139	SMARCAL1 (SNF2 related chromatin remodeling annealing helicase 1)	SID315456318	1.42
140	SMARCAL1 (SNF2 related chromatin remodeling annealing helicase 1)	SID315456318	3.29 (active)
141	SMARCAL1 (SNF2 related chromatin remodeling annealing helicase 1)	SID315456318	2.01
142	SMARCAL1 (SNF2 related chromatin remodeling annealing helicase 1)	SID315456318	1.83
